The source of these data is paper PMC4978723.

Amino acid sequences for entries named in this document (tags omitted). A change or cut given only in a name is not applied to a line headed by its entry. Residues count along the entry.
UniProt P11275: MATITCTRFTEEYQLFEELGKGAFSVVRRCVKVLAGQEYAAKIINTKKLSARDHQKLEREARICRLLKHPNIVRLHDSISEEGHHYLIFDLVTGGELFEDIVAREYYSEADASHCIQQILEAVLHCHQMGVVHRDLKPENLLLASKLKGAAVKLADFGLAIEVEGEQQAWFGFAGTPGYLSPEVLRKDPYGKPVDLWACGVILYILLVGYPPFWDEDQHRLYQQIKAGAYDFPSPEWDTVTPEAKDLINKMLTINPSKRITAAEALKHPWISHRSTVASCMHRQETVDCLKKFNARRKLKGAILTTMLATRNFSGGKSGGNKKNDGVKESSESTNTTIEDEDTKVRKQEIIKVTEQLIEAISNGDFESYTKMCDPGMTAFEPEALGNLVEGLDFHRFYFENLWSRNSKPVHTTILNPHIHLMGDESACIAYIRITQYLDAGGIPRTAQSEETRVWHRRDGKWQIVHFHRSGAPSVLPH
UniProt Q00960, residues 840-1482: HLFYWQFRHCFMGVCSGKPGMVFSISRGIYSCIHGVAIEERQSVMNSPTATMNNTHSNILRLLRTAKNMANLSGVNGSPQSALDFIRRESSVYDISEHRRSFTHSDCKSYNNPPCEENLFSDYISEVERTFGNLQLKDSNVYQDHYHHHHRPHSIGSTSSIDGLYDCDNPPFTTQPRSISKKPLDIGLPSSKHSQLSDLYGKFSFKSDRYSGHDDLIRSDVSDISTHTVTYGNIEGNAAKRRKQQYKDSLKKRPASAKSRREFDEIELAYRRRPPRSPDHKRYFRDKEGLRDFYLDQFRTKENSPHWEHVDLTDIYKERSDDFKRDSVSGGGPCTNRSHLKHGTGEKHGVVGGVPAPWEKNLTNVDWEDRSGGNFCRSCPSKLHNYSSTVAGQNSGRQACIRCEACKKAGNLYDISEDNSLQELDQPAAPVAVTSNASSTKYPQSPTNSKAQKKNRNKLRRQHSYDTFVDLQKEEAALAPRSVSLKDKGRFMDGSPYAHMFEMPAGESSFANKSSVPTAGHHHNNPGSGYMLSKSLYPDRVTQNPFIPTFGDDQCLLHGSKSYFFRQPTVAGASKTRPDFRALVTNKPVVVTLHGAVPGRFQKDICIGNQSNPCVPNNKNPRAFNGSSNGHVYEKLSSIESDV

Assay [1] addresses T1, GFP tagged rat Jacob (WT-Jacob-GFP) (rat) (UniProt Q9EPI6).
T1 sequence: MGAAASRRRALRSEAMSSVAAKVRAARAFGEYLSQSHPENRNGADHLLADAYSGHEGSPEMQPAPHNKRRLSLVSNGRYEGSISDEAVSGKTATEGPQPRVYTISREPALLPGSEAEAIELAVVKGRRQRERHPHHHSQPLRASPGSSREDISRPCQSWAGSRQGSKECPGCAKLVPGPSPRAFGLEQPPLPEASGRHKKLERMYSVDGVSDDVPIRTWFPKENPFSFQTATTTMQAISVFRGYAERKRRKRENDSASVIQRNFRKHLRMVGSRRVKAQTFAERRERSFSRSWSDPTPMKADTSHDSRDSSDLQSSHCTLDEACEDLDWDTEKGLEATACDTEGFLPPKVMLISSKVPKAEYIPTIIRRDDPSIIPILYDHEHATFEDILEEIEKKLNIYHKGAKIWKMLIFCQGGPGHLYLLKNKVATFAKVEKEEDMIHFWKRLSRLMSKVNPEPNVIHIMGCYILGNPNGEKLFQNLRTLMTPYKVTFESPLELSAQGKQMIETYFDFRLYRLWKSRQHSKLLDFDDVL
Nature of the assay: co-IP; heterologous co-IP from co-transfected HEK293T cells, 24 h after transfection; RIPA buffer (10 mM Tris-HCl pH 7.4, 150 mM NaCl, 1% sodium deoxycholate, 0.1% SDS, 1% Triton X-100); GFP-tagged bait precipitated with anti-GFP MicroBeads for 1 h; tagRFP-tagged prey detected by western blot with anti-tagRFP. (In general: In western blotting, separated proteins are transferred to a membrane and probed.)

The target in a further assay is Rat GFP-CaMKII-α (rat) (UniProt P11275). Described as above.

Results are given in words; binding and its absence hold for the method and conditions named. Binding seen in cells or lysates may run through a third protein. Some entries that bind do so weakly or less than the wild type. Sequences can lack the tags named with a protein.

With “N-terminal deletion mutant of rat GluN2B NMDAR subunit (GluN2B-840-1482-tagRFP) (from UniProt Q00960 840-1482) (domain or fragment)”, the binding entry in assay [1] is given as “binds”.
Still for that read-out and setting: next, “Rat tagRFP-CaMKII-α (from UniProt P11275 1-478) (enzyme)”: “binds”.

B1: WT-Jacob-tagRFP (protein, UniProt Q9EPI6 1-532)
chain: MGAAASRRRALRSEAMSSVAAKVRAARAFGEYLSQSHPENRNGADHLLADAYSGHEGSPEMQPAPHNKRRLSLVSNGRYEGSISDEAVSGKTATEGPQPRVYTISREPALLPGSEAEAIELAVVKGRRQRERHPHHHSQPLRASPGSSREDISRPCQSWAGSRQGSKECPGCAKLVPGPSPRAFGLEQPPLPEASGRHKKLERMYSVDGVSDDVPIRTWFPKENPFSFQTATTTMQAISVFRGYAERKRRKRENDSASVIQRNFRKHLRMVGSRRVKAQTFAERRERSFSRSWSDPTPMKADTSHDSRDSSDLQSSHCTLDEACEDLDWDTEKGLEATACDTEGFLPPKVMLISSKVPKAEYIPTIIRRDDPSIIPILYDHEHATFEDILEEIEKKLNIYHKGAKIWKMLIFCQGGPGHLYLLKNKVATFAKVEKEEDMIHFWKRLSRLMSKVNPEPNVIHIMGCYILGNPNGEKLFQNLRTLMTPYKVTFESPLELSAQGKQMIETYFDFRLYRLWKSRQHSKLLDFDDVL
For B1, in the assay with Rat GFP-CaMKII-α (rat), the binding entry is reported as “binds”.
